PubChem BioAssay AID686943 – Drosophila RNAi Screening Center, 2013
Assay: 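Knockdowns that increase or decrease active ERK after insulin receptor stimulation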 (primary screen). Cell system: Drosophila S2R+ haemocyte-like cells expressing YFP-tagged ERK (Rolled). Knock-down reagent: long dsRNA against Drosophila genes. Conditions: insulin stimulation versus unstimulated cells; dose and duration not given. Measurement: 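Per-plate z-scores of phospho-ERK immunostaining normalised to YFP-tagged ERK, measured with and without insulin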. Reading the numbers: replicate 1, z-score of dpERK with insulin and replicate 2, z-score of dpERK with insulin: higher = more active ERK per ERK-YFP after insulin.
The deposit covers about 23,000 reagents; this is an unselected part of those with a known target gene and a result. 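Extra replicates exist only for a retested subset of genes; insulin dose and duration not given; both raised and lowered dpERK matter.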 Names joined by + are all predicted targets of the reagent. Not all columns of the deposit are shown. Reagent sequences are not shown. Not stated in the record: the amount of reagent, the time to read-out.

Against Trpml + CG42638 [DRSC11032], the values are replicate 1, z-score of dpERK with insulin -0.56; replicate 2, z-score of dpERK with insulin -0.08. Silencing of CG11269 [DRSC04094] resulted in: replicate 1, z-score of dpERK with insulin 0.78; replicate 2, z-score of dpERK with insulin -0.11. Against CG12708 [DRSC19490], the entry reads replicate 1, z-score of dpERK with insulin 0.33; replicate 2, z-score of dpERK with insulin 0.25. For Muc96D [DRSC13709], the entry reads replicate 1, z-score of dpERK with insulin 1.02; replicate 2, z-score of dpERK with insulin 0.67. After knock-down of Muc96D [DRSC21609] the results were replicate 1, z-score of dpERK with insulin 0.97; replicate 2, z-score of dpERK with insulin 0.69. Silencing of Arv1 [DRSC11491] resulted in: replicate 1, z-score of dpERK with insulin -0.39; replicate 2, z-score of dpERK with insulin 1.78.

CG18469 [DRSC21838] showed replicate 1, z-score of dpERK with insulin 0.49; replicate 2, z-score of dpERK with insulin -0.07. For CG5157 [DRSC10488] the deposit lists replicate 1, z-score of dpERK with insulin -0.11; replicate 2, z-score of dpERK with insulin 0.1. polybromo [DRSC14307] showed replicate 1, z-score of dpERK with insulin -1.58; replicate 2, z-score of dpERK with insulin 1.86. Hers + amn [DRSC20306] showed replicate 1, z-score of dpERK with insulin 0.13; replicate 2, z-score of dpERK with insulin 0.19. bw [DRSC04005] scored replicate 1, z-score of dpERK with insulin 0.02; replicate 2, z-score of dpERK with insulin 0.62. Against bw [DRSC04677], the entry reads replicate 1, z-score of dpERK with insulin 0.24; replicate 2, z-score of dpERK with insulin 0.38.

For CG14689 [DRSC14912], the entry reads replicate 1, z-score of dpERK with insulin 0.42; replicate 2, z-score of dpERK with insulin 0.23. Against CG15577 [DRSC18065], the values are replicate 1, z-score of dpERK with insulin -0.38; replicate 2, z-score of dpERK with insulin -0.33. Knock-down of ktub [DRSC04551] gave: replicate 1, z-score of dpERK with insulin -0.4; replicate 2, z-score of dpERK with insulin 0.17. With knock-down of Ret [DRSC03409], the screen gave replicate 1, z-score of dpERK with insulin -0.29; replicate 2, z-score of dpERK with insulin 0.2. After knock-down of Ret [DRSC03410], the screen gave replicate 1, z-score of dpERK with insulin -0.48; replicate 2, z-score of dpERK with insulin 0. With knock-down of Tcs3 [DRSC10461], the record shows replicate 1, z-score of dpERK with insulin 0.39; replicate 2, z-score of dpERK with insulin -0.06.

Knock-down of CG15706 [DRSC06577] gave: replicate 1, z-score of dpERK with insulin -0.66; replicate 2, z-score of dpERK with insulin 0.47. For dy [DRSC20325], the values are replicate 1, z-score of dpERK with insulin 0.76; replicate 2, z-score of dpERK with insulin 0.27.

Just “replicate 2, z-score of dpERK with insulin”, for 2 of the entries above:
ktub [DRSC04551] = 0.17
Ret [DRSC03409] = 0.2

The listing continues:
Knock-down of cmet [DRSC03511] resulted in: replicate 1, z-score of dpERK with insulin 0.34; replicate 2, z-score of dpERK with insulin 1.39. For tin [DRSC17083] the deposit lists replicate 1, z-score of dpERK with insulin 0.88; replicate 2, z-score of dpERK with insulin 0.63. With knock-down of tin [DRSC22853], the record shows replicate 1, z-score of dpERK with insulin -0.86; replicate 2, z-score of dpERK with insulin -1.14. Knock-down of Best2 [DRSC09712] gave: replicate 1, z-score of dpERK with insulin 0.15; replicate 2, z-score of dpERK with insulin 0.33. After knock-down of CG8149 [DRSC16391], the record shows replicate 1, z-score of dpERK with insulin 0.37; replicate 2, z-score of dpERK with insulin 0.1. CG9356 [DRSC16476] showed replicate 1, z-score of dpERK with insulin -0.43; replicate 2, z-score of dpERK with insulin 0.03.

CG9101 [DRSC20152] scored replicate 1, z-score of dpERK with insulin 0; replicate 2, z-score of dpERK with insulin -1.24. GluRIB [DRSC10258] showed replicate 1, z-score of dpERK with insulin 0.28; replicate 2, z-score of dpERK with insulin 1.53. After knock-down of GluRIB [DRSC11177] the results were replicate 1, z-score of dpERK with insulin 1.97; replicate 2, z-score of dpERK with insulin 0.81. With knock-down of ZnT86D [DRSC16091], the record shows replicate 1, z-score of dpERK with insulin 0.42; replicate 2, z-score of dpERK with insulin 0.2. For Msh6 [DRSC10759], the entry reads replicate 1, z-score of dpERK with insulin 1.17; replicate 2, z-score of dpERK with insulin -0.2.
